These results are taken from PubChem BioAssay AID2685 (National Center for Advancing Translational Sciences (NCATS), 2010).

Some of the results follow. Further columns of the screen follow, without active or inactive calls. The list favours compounds with an active or inconclusive main result. Words in brackets tell the shape of the fitted curve; partial curves, single points and poor fits give uncertain potencies.

The assay in a line: qHTS Assay for Lipid Storage Modulators in Drosophila S3 Cells.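 As to cell number change: cells counted by Cell Tracker Red CMTPX staining in the red channel.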 Particulars: BODIPY lipid droplet fluorescence, 18-24 h; for cell number change: measured here: cell count max response, cells fed with added oleic acid. The procedure, abridged: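 Laser-scanning cytometry quantifies lipid droplet accumulation (500–530 nm total intensity; droplet/cell object ratio) in oleic acid-fed (400 uM added) Drosophila S3 cells treated with a concentration series. 20 uM Triacsin C defined 100% inhibition.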
(In general: Quantitative high-throughput screening tests each substance at several concentrations.)

[1] abbreviates: measured here: lipid fluorescence (Fed channel) AC50, cells fed with added oleic acid.
Setting [2] is: measured here: cell number channel AC50, cells fed with added oleic acid.

A word on the AC50: it is the midpoint of the concentration-response curve, whichever way the signal moves.

Regarding `C#C[C@]1(O)CC[C@H]2[C@@H]3CCC4=CC(=O)CC[C@@H]4[C@H]3CC[C@@]21CC`, the cell number change worked out at 24.8%. Further, the concentration at half-maximal activity (AC50) under setting [1] was 23.1 µM [rising, single point].

As to `COc1ccc([N+](=O)[O-])cc1N(CC(=O)O)S(C)(=O)=O`, the cell number change is -0.319%.

As to `Cc1cc(=O)oc2cc(OC(C)C(=O)NCCc3ccc(S(N)(=O)=O)cc3)ccc12` (stereo not given), the cell number change amounted to 5.2%. For the same molecule, under setting [1], the AC50 is 29.1 µM [rising, single point].

In the case of `COc1ccc2oc(C(=O)NCCc3ccccc3)c(C)c2c1`, the AC50 under setting [1] is 0.58 µM [rising, single point].

For `O=Cc1ccc(O)c2ncccc12`, the cell number change was determined as 0.279%.

As for `CCNC(=O)CC1C(=O)N(c2ccc(F)cc2)C(=O)N1Cc1ccc(OC)cc1` (stereo not given), the cell number change is -12%.

For `CCOc1ccc(NS(=O)(=O)c2cccc(C(=O)N(C)Cc3ccco3)c2)cc1`, the cell number change was -25.5%. Besides, the half-maximal activity concentration (AC50) under setting [1] was 5.8 µM [falling, full curve, poor fit].

Consider `O=C(Nc1ccc(F)cc1)c1cccnc1NCCc1ccccc1`, for which the cell number change is -27.5%. Under setting [1], the AC50 is 32.6 µM [falling, single point].

Regarding `Cc1ccc(CC(=O)NCc2ccc3c(c2)OCO3)cc1`, the cell number change came to 0.586%. Under setting [1], the AC50 is 0.00461 µM [falling, full curve, poor fit].

Regarding `COC(=O)Nc1ccc2c(c1)ncn2C1CCCCC1`, the cell number change turned out to be 31.5%. Moreover, under setting [2], the AC50 was 20.6 µM [rising, single point].

For `COc1ccc(C(=O)NCCc2nnc3ccc(SCC(=O)NCc4ccc(F)cc4)nn23)cc1`, the cell number change was -18.4%.

For the molecule `COc1ccc(C)cc1NC(=O)CN(c1ccccc1)S(C)(=O)=O`, under setting [1], the AC50 was 1.84 µM [rising, partial curve].

Regarding `Cc1cc2cc(CN(Cc3ccc4c(c3)OCO4)C(=O)c3cnccn3)c3nnnn3c2cc1C`, the cell number change is 5.43%. The AC50 under setting [1] was 0.517 µM [rising, full curve].

With `FC(F)(F)c1ccc(N/N=C/c2cccnc2)nc1`, the cell number change worked out at 12.6%.

As for `Cc1ccc(C)c(N(CC(=O)NC2CCCC2)C(=O)CNC(=O)c2cccs2)c1`, the cell number change was -14.1%. In addition, the AC50 under setting [1] was 6.51 µM [falling, single point].

Consider `CSC1=N/C(=C\c2ccc(C)s2)C(=O)S1`, for which the AC50 is 6.51 µM [falling, single point] under setting [2] and 18.4 µM [rising, partial curve] under setting [1].

For `CC(C)(C)NC(=O)C1CCC(CNc2c(N3CCCCC3)c(=O)c2=O)CC1` (stereo not given), the cell number change came out at 46.5%. In addition, the AC50 under setting [2] was 11.6 µM [rising, partial curve, poor fit]. Moreover, under setting [1], the AC50 is 18.4 µM [rising, partial curve].

With `CC(C)C(=O)N1CCN(c2ccccc2N)CC1`, the cell number change is -4.74%. Under setting [1], the half-maximal activity concentration (AC50) was 2.59 µM [rising, single point].

Take `COc1ccc(NC(=O)COc2cccnc2[N+](=O)[O-])cc1OC`: the cell number change was 7.93%. The AC50 under setting [2] was 0.731 µM [falling, single point].

Regarding `O=C(COC(=O)c1ccccc1[N+](=O)[O-])NNC(=O)c1cccs1`, the cell number change is -15.2%.

In the case of `Cc1ccc2oc(-c3cccc(NC(=S)NC(=O)/C=C/c4ccco4)c3)nc2c1`, the cell number change came to 27.1%.

In the case of `CC1CCN(c2nc3c(c(=O)[nH]c(=O)n3C)n2CC(C)CSc2nnnn2-c2ccccc2)CC1` (stereo not given), the cell number change worked out at 3.92%. The AC50 under setting [2] is 0.517 µM [falling, single point]. Further, under setting [1], the AC50 was 29.1 µM [rising, single point].

Consider `CCOc1ccccc1NC(=O)c1cccc(N2C(=O)CCC2=O)c1`, for which the cell number change was 2.97%. Further, under setting [1], the AC50 is 29.1 µM [falling, single point].

Regarding `COc1ccc(NC(=O)COC(=O)CCc2cc(OC)c(OC)c(OC)c2)c([N+](=O)[O-])c1`, the cell number change is 14%. Also, the AC50 under setting [1] is 6.51 µM [rising, single point].

Take `C=CCn1c(SCC(=O)NC2CC2)nnc1-c1cccc(OC)c1`: the cell number change is -0.99%. In addition, the AC50 under setting [2] is 2.91 µM [rising, single point]. The AC50 under setting [1] is 29.1 µM [falling, single point].

For the molecule `O=C(O)CS(=O)(=O)CC(=O)NCc1cccc(C(F)(F)F)c1`, the cell number change worked out at 131%. Besides, under setting [2], the AC50 is 16.4 µM [rising, partial curve].

Regarding `COC(=O)C1=C(C)N=c2s/c(=C3\C(=O)Nc4ccccc43)c(=O)n2C1c1ccccc1` (stereo not given), the cell number change is -33.5%. In addition, under setting [2], the AC50 is 8.2 µM [falling, partial curve]. Besides, the AC50 under setting [1] was 10.3 µM [falling, partial curve].

Turning to `Cc1nc(CNS(=O)(=O)c2ccc(F)cc2)cs1`, the cell number change is -47.9%. The AC50 under setting [2] is 20.6 µM [falling, partial curve]. The AC50 under setting [1] was 29.1 µM [falling, single point].

With `Cc1cnc(NC(=O)c2nn(C)cc2[N+](=O)[O-])s1`, the cell number change turned out to be 135%. The AC50 under setting [2] is 18.4 µM [rising, partial curve].

On to `COc1ccc([N+](=O)[O-])cc1N(CC(=O)NCCCOC(C)C)S(C)(=O)=O`, for which the cell number change was -14.3%. Besides, the AC50 under setting [1] is 29.1 µM [falling, single point].

Regarding `Cc1ccc(CSc2ncnc3c2cnn3Cc2ccccc2)cc1`, the cell number change amounted to 38.5%. For the same molecule, the half-maximal activity concentration (AC50) under setting [2] was 7.31 µM [rising, partial curve, poor fit]. Also, the AC50 under setting [1] is 6.51 µM [falling, single point].

For the molecule `Cc1csc(SCC(=O)Nc2cc(S(=O)(=O)N(C)C)ccc2C)n1`, the cell number change is 57%. Moreover, the AC50 under setting [2] was 18.4 µM [rising, single point].

`O=S(=O)(c1ccc(Br)s1)N1CCN(Cc2ccc3c(c2)OCO3)CC1`: the cell number change was found to be 12.7%.

As for `CCOc1cc(/C=C2/SC(=S)N(Cc3ccccc3)C2=O)ccc1O`, the cell number change is -99.7%. Under setting [2], the AC50 is 18.4 µM [falling, partial curve]. In addition, the AC50 under setting [1] was 6.51 µM [falling, single point].

Turning to `COc1ccc(-n2c(SCC(=O)Nc3cccc(C(=O)O)c3)nnc2-c2ccco2)cc1`, the cell number change is 42.6%. The AC50 under setting [2] is 20.6 µM [rising, partial curve, poor fit].

`C=CCOn1c(=O)c(-c2cccs2)[n+]([O-])c2ccccc21`: the cell number change is 49.1%. For the same molecule, the AC50 under setting [2] was 29.1 µM [rising, partial curve, poor fit].

On to `CNC(=S)N(C)/N=C1/C(=O)N(Cc2c(Cl)cccc2Cl)c2ccccc21`, for which the cell number change came out at 14%. For the same molecule, the AC50 under setting [1] was 0.00461 µM [rising, full curve, poor fit].

On to `Cc1ccc(NC2CCCN(C(=O)c3ccc(F)cc3)C2)cc1C` (stereo not given), for which the cell number change came out at 34.8%. Besides, under setting [2], the AC50 is 29.1 µM [rising, single point].

As for `O=C(Cc1cc(=O)[nH]c(=O)[nH]1)NCC1CCCO1` (stereo not given), the cell number change was found to be 0.443%. For the same molecule, the AC50 under setting [1] is 10.3 µM [rising, partial curve].
